Experimental findings from the supplement of paper PMC3682954 are described below.

Structures can show the parent of a compound that is named as a salt. ± gives the standard deviation of the averaged measurements. The list shows a part of the results. Repeats are few or missing, and single values can be far off.

For the test, the system named is RAW 264.7. Description: HMGB1-induced TNF-alpha production relative to HMGB1-stimulated control; higher = more TNF-alpha secretion (less inhibition). As to conditions: stimulus: HMGB1 5 ug/ml, 18 h.
Where [1] appears, read: compound concentration: 1 ug/ml.

For `O=C(NCNC(=O)NC1C(=O)NC(=O)N1CO)NC1C(=O)NC(=O)N1CO` (stereo not drawn) [Imidurea], the “HMGB1-induced TNF-alpha production” value (compound concentration: 3 uM) was found to be 88.1%.
On the same count and under the same terms, for `CC(=O)O[C@H]1CC[C@@]2(C)C(=CC[C@@H]3[C@@H]2CC[C@]2(C)C(=O)CC[C@@H]32)C1` [Dehydroisoandosterone 3-acetate] the value was 123%; for `CC(=O)O[C@H]1CC[C@@]2(C)C(=CC[C@@H]3[C@@H]2CC[C@]2(C)C(=O)CC[C@@H]32)C1`, 84.5%.
Regarding `OCc1cnc[nH]1` [4-Imidazolemethanol hydrochloride], where the note is “compound concentration: 3 uM”, the “HMGB1-induced TNF-alpha production” value is 87.9%.
As to `O=C(O)CC[N+](=O)[O-]` [3-Nitropropionic acid], where the note is “compound concentration: 3 uM”, the “HMGB1-induced TNF-alpha production” value was 129%.
As for `O=C(O)CC[N+](=O)[O-]` [BOVINOCIDIN (3-nitropropionic acid)], the “HMGB1-induced TNF-alpha production” value (compound concentration: 3 uM) amounted to 88.2%.
Consider `Oc1ccc2c3c1O[C@H]1[C@@H](O)CC[C@@]4(O)[C@@H](C2)N(CC2CCC2)CC[C@]314` [Nalbuphine], for which the “HMGB1-induced TNF-alpha production” value (compound concentration: 3 uM) came to 95.4 ± 8.1%.
As to `Oc1ccc2c3c1O[C@H]1[C@@H](O)CC[C@@]4(O)[C@@H](C2)N(CC2CCC2)CC[C@]314`, the “HMGB1-induced TNF-alpha production” value (compound concentration: 3 uM) amounted to 95.6%.
As for `Oc1ccc2c3c1O[C@H]1[C@@H](O)CC[C@@]4(O)[C@@H](C2)N(CC2CCC2)CC[C@]314` [Nalbuphine hydrochloride], the “HMGB1-induced TNF-alpha production” value (compound concentration: 3 uM) came to 69.6%.
For `CC(N)C(O)c1ccc(O)c(O)c1` (single isomer, unassigned; (-)) [(-)-alpha-Methylnorepinephrine], the “HMGB1-induced TNF-alpha production” value (compound concentration: 3 uM) is 55.3%.
`CC1=C2C3OC(=O)C(C)C3CCC2(C)C=CC1=O` (stereo not drawn) [a-Santonin]: the “HMGB1-induced TNF-alpha production” value under setting [1] turned out to be 46%.
With `CC1C=CC=CCCC=CC=CC=CC=CC(OC2OC(C)C(O)C(N)C2O)CC2OC(O)(CC(O)C(O)CCC(O)CC(O)CC(O)CC(=O)OC(C)C(C)C1O)CC(O)C2C(=O)O` (stereo not drawn) [Nystatin], the “HMGB1-induced TNF-alpha production” value (compound concentration: 3 uM) came to 88.4%.
For `CC1C=CC=CCCC=CC=CC=CC=CC(OC2OC(C)C(O)C(N)C2O)CC2OC(O)(CC(O)C(O)CCC(O)CC(O)CC(O)CC(=O)OC(C)C(C)C1O)CC(O)C2C(=O)O` (stereo not drawn), the “HMGB1-induced TNF-alpha production” value (compound concentration: 3 uM) turned out to be 85.5%.
For the compound `C[C@]12CC[C@H](O)CC1=CC[C@@H]1[C@@H]2CC[C@]2(C)C(=O)CC[C@@H]12` [Dehydroepiandrosterone], the “HMGB1-induced TNF-alpha production” value (compound concentration: 3 uM) was determined as 102%.
With `CN1C(=O)CN=C(c2ccccc2)c2cc(Cl)ccc21` [Diazepam], the “HMGB1-induced TNF-alpha production” value (compound concentration: 3 uM) was 104%.
As for `Cc1cc([C@@H]2CCCN2C)on1` [ABT-418 hydrochloride], under “compound concentration: 3 uM”, the “HMGB1-induced TNF-alpha production” value stood at 94.2%.
Consider `CC(C)[C@@]1(NC(=O)[C@@H]2C=C3c4cccc5[nH]cc(c45)C[C@H]3N(C)C2)O[C@@]2(O)[C@@H]3CCCN3C(=O)[C@H](Cc3ccccc3)N2C1=O` [Ergocristine], for which the “HMGB1-induced TNF-alpha production” value under setting [1] was 58%.
On to `COc1ccc2c(c1)[C@@]13CCCC[C@H]1[C@@H](C2)NCC3` [3-Methoxy-morphanin hydrochloride], for which the “HMGB1-induced TNF-alpha production” value (compound concentration: 3 uM) was 95.3%.
Consider `COc1cc2c(c(OC)c1OC)-c1ccc(OC)c(=O)cc1[C@@H](NC(C)=O)CC2`, for which the “HMGB1-induced TNF-alpha production” value (compound concentration: 3 uM) came out at 171 ± 23%.
For `COc1cc2c(c(OC)c1OC)-c1ccc(OC)c(=O)cc1[C@@H](NC(C)=O)CC2` [Colchicine], the “HMGB1-induced TNF-alpha production” value is 75.4% under setting [1] and 133 ± 19% (compound concentration: 3 uM).
For the compound `N#C[C@H](O[C@@H]1O[C@H](CO[C@@H]2O[C@H](CO)[C@@H](O)[C@H](O)[C@H]2O)[C@@H](O)[C@H](O)[C@H]1O)c1ccccc1`, the “HMGB1-induced TNF-alpha production” value (compound concentration: 3 uM) is 91.5%.
For the compound `CC[C@@H](CO)NC(=O)[C@@H]1C=C2c3cccc4c3c(cn4C)C[C@H]2N(C)C1` [Methysergide maleate], for the setting “compound concentration: 3 uM”, the “HMGB1-induced TNF-alpha production” value came to 97.6%.
Consider `CC[C@@H](CO)NC(=O)[C@@H]1C=C2c3cccc4c3c(cn4C)C[C@H]2N(C)C1` [Methysergide], for which the “HMGB1-induced TNF-alpha production” value (compound concentration: 3 uM) stood at 108%.
For the compound `CC[C@@H](CO)NC(=O)[C@@H]1C=C2c3cccc4c3c(cn4C)C[C@H]2N(C)C1`, the “HMGB1-induced TNF-alpha production” value (compound concentration: 3 uM) came out at 81.9%.
As for `CC(C)C1CNC(C(=O)O)C1CC(=O)O` (stereo not drawn) [Dihydrokainic acid], the “HMGB1-induced TNF-alpha production” value (compound concentration: 3 uM) is 87.7%.
Turning to `CCCCCC[C@H]1C(=O)O[C@H](C)[C@H](NC(=O)c2cccc(NC=O)c2O)C(=O)O[C@@H](C)[C@@H]1OC(=O)CC(C)C` [Antimycin A], the “HMGB1-induced TNF-alpha production” value (compound concentration: 3 uM) was 65%.
Regarding `CCCN(CCC)[C@H]1CCc2c(F)ccc(O)c2C1` [S(-)-UH-301 hydrochloride], under “compound concentration: 3 uM”, the “HMGB1-induced TNF-alpha production” value was determined as 99%.
Regarding `C=C1C/C(=C/C)C(=O)O[C@@H]2CCN3CC=C(COC(=O)[C@]1(C)O)[C@H]23` [Seneciphylline], the “HMGB1-induced TNF-alpha production” value under setting [1] was found to be 78%.
With `c1ccc2c(c1)OCC(C1=NCCN1)O2` (stereo not drawn) [Idazoxan], the “HMGB1-induced TNF-alpha production” value (compound concentration: 3 uM) stood at 100%.
Regarding `c1ccc2c(c1)OCC(C1=NCCN1)O2` (stereo not drawn) [Idazoxan hydrochloride], the “HMGB1-induced TNF-alpha production” value (compound concentration: 3 uM) came to 101 ± 7.8%.
Regarding `c1ccc2c(c1)OCC(C1=NCCN1)O2` (stereo not drawn), the “HMGB1-induced TNF-alpha production” value (compound concentration: 3 uM) stood at 77%.
For `C[C@]12CC[C@@H](O)C[C@@H]1CC[C@@H]1[C@@H]2CC[C@]2(C)[C@@H](C(=O)CO)CC[C@@H]12` [3-alpha,21-Dihydroxy-5-alpha-pregnan-20-one], the “HMGB1-induced TNF-alpha production” value (compound concentration: 3 uM) stood at 101%.
For the compound `CC1=C2C(=CO[C@H](C)[C@H]2C)C(O)=C(C(=O)O)C1=O`, the “HMGB1-induced TNF-alpha production” value (compound concentration: 3 uM) came to 81.6%.
As for `CCCN(CCC)C1CCc2cccc(O)c2C1` (racemic) [(±)-8-Hydroxy-DPAT hydrobromide], the “HMGB1-induced TNF-alpha production” value (compound concentration: 3 uM) was 84.7%.
Turning to `CC[N+]1(C)CCCC(OC(=O)C(O)(c2ccccc2)c2ccccc2)C1` (stereo not drawn) [Pipenzolate bromide], where the note is “compound concentration: 3 uM”, the “HMGB1-induced TNF-alpha production” value came out at 87.4%.
Regarding `CC[N+]1(C)CCCC(OC(=O)C(O)(c2ccccc2)c2ccccc2)C1` (stereo not drawn), the “HMGB1-induced TNF-alpha production” value (compound concentration: 3 uM) was found to be 84.2%.
Regarding `c1ccc2c(c1)Nc1ccccc1S2`, the “HMGB1-induced TNF-alpha production” value (compound concentration: 3 uM) amounted to 109%.
